Assay [1] addresses T1, Nluc::LAG-2 (C. elegans DSL protein/Notch ligand LAG-2 fused to Nanoluciferase) (C. elegans) (UniProt P45442).
T1 sequence: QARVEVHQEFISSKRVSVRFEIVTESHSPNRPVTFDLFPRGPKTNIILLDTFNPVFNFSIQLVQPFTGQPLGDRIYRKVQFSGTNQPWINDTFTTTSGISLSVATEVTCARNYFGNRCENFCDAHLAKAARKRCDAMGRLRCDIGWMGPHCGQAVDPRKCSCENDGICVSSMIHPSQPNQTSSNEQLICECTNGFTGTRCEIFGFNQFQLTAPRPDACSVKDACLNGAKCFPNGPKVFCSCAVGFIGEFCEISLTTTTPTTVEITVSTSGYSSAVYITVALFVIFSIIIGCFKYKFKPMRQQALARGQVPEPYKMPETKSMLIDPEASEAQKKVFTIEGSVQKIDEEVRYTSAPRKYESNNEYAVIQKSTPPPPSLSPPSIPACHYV
The assay can be described thus: FRET or BRET; NanoBRET saturation in living HEK293 cells, both proteins co-expressed in the same cells (cis); gradient of Venus acceptor DNA (0-3970 ng/well) over constant Nluc donor (30 ng/well); coelenterazine H 5 µM, HBSS with 25 mM HEPES pH 7.4, 37 °C; BRET50 from a one site total binding hyperbola.

Chains of the proteins cited; added tags and fusions are not shown. Residues count along the entry.
UniProt P43220, residues 24-463: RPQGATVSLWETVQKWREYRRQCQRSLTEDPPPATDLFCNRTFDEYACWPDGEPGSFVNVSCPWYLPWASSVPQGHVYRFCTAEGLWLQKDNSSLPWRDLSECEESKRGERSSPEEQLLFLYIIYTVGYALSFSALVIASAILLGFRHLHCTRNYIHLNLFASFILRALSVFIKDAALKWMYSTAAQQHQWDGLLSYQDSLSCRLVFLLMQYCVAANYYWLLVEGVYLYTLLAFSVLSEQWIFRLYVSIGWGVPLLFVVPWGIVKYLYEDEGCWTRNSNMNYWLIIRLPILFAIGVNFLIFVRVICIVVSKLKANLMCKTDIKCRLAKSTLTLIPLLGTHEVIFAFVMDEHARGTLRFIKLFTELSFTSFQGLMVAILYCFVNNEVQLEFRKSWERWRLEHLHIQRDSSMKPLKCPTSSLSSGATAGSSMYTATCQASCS

For assay [2], the target named is T2, VN::LAT-1 (LAT-1 fused to the VN part of split Venus) (C. elegans) (UniProt G5EDW2).
T2 sequence: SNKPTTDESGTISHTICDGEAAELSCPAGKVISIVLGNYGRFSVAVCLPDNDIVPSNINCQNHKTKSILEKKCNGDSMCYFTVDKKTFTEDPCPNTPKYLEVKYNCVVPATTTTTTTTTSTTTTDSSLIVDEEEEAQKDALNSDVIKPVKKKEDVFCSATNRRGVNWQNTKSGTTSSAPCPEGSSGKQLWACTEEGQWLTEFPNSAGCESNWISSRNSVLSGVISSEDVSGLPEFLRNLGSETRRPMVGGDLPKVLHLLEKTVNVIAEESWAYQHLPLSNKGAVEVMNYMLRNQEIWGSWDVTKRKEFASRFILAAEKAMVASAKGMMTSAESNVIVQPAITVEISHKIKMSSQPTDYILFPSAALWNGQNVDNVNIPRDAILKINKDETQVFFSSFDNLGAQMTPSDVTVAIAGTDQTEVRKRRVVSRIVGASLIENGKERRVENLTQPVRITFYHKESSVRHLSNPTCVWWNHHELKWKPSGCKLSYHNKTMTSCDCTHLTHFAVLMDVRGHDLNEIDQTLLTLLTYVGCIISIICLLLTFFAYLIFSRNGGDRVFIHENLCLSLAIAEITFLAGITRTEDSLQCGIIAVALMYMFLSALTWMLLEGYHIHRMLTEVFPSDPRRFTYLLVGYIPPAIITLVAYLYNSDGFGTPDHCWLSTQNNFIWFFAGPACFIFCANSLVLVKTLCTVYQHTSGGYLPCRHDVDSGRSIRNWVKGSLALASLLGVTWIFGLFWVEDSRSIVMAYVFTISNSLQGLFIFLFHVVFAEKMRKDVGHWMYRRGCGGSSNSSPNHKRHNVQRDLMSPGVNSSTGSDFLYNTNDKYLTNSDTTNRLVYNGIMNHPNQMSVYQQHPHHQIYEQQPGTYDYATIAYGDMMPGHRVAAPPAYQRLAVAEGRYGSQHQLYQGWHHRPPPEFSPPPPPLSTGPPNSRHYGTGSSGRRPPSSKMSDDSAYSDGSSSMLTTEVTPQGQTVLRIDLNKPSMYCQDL
The assay can be described thus: split reporter; competition BiFC in living C. elegans: VN::lat-1 (1 ng) and VC::lag-2 (1 ng) with 5-fold, 10-fold or 50-fold untagged lag-2 as competitor; heat shock as for BiFC.

Assay [3] has as its target T3, VC::GLP-1 (Notch receptor GLP-1 fused to the VC part of split Venus) (C. elegans) (UniProt P13508).
T3 sequence: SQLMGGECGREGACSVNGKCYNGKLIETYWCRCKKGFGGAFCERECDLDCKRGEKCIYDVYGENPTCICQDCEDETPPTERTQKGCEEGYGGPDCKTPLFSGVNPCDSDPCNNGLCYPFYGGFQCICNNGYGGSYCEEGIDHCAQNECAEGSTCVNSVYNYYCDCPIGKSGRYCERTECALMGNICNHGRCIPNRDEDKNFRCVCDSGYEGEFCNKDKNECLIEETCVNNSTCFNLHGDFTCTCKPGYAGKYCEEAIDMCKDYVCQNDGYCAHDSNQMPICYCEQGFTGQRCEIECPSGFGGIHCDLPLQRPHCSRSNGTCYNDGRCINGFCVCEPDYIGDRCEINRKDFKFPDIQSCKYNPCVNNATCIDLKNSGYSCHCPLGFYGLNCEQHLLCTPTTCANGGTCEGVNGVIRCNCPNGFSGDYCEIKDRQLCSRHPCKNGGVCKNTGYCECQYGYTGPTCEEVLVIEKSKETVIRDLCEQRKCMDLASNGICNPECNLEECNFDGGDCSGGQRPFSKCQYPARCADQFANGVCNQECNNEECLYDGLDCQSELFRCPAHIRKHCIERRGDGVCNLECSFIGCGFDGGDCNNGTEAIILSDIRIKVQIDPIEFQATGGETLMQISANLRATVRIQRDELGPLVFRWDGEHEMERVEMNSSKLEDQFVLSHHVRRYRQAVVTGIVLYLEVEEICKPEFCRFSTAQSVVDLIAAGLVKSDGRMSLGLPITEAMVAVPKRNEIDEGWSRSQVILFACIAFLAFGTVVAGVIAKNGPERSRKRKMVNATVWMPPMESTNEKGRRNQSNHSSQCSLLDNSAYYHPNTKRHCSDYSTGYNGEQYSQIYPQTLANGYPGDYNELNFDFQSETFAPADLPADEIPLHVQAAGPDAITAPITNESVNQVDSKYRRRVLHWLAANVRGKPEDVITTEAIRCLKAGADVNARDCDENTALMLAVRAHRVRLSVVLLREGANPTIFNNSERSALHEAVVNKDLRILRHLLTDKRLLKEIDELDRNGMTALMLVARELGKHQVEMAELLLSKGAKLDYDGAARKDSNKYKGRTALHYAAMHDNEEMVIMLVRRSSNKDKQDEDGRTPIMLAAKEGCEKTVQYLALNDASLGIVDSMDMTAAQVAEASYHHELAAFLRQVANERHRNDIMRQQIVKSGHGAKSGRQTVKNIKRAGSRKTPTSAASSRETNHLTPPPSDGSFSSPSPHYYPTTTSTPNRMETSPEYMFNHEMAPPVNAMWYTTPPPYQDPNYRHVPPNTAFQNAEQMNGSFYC
The assay can be described thus: split reporter; BiFC with split Venus (VN/VC) in living C. elegans, heat-shock promoter hsp16.41p, 3 h at 33 °C and 5 h recovery at 22 °C; fluorescence read in the pharynx region.

These are yes or no findings as the source states them, for the method shown. Binding seen in cells or lysates may run through a third protein. Some results given as binding are weak or reduced against the parent protein; the word gives no strength. Sequences can lack the tags named with a protein.

“human glucagon-like peptide-1 receptor (hGLP1R) fused to a Venus protein (from UniProt P43220 24-463)”: the binding result in assay [1] is “no binding”.

B1: untagged LAG-2 (competitor in the competition BiFC assay) (ligand, UniProt P45442 16-402)
chain: T1 sequence
B1: in assay [2], the binding result is reported as “binds”.

B2: LAG-2 fused to a part of split Venus (positive control pairing with GLP-1) (ligand, UniProt P45442 16-402)
chain: T1 sequence
In the case of B2, the binding result in assay [3] is given as “binds”.
